Experimental findings from patent publication US20250257130A1 (NONA BIOSCIENCES SUZHOU, published 2025) are described below.

The chains behind the UniProt entries cited, without tags or fusion partners. Residues count along the entry.
UniProt Q01973, residues 30-937: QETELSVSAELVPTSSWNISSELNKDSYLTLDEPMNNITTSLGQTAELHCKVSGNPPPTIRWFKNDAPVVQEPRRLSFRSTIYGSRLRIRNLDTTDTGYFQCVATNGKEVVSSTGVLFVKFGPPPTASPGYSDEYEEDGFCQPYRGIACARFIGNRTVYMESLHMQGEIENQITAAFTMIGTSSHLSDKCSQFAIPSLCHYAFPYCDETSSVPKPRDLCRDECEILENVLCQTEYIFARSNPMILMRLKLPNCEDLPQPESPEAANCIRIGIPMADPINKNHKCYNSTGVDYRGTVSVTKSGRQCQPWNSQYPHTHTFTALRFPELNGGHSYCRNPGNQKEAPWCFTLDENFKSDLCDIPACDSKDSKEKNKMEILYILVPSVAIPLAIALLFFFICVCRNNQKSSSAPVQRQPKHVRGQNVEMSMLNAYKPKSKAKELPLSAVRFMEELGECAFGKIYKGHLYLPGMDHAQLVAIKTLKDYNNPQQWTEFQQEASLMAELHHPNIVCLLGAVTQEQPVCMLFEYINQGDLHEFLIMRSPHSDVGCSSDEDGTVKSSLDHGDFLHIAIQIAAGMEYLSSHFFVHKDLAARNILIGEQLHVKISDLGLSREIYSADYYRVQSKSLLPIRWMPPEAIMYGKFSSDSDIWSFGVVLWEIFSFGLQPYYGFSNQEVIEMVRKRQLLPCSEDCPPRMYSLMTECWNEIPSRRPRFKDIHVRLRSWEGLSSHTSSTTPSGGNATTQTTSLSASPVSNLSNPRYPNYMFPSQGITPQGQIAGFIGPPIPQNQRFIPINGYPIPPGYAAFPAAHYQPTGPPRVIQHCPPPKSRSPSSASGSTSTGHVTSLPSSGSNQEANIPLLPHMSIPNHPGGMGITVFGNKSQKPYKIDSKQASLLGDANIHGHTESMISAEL

For test [1], the target named is cynomolgus ROR1 on CHO-K1-cynoROR1 cells (cynomolgus monkey). In words: flow cytometry on CHOK1-cynoROR1 cells, MFI (Mean) [bottom panel, letter not given]. (In flow cytometry, cells or beads pass a laser one at a time.)
Test [2] has the same target. Kind of test: flow cytometry, CHO-K1-cynoROR1 cells.
Test [3] has as its target human ROR1 on cells (HEK293T-hROR1, PANC-1, A549) (human) (UniProt Q01973). Kind of test: flow cytometry, PANC-1 cells.
For test [4] the target is unchanged. Kind of test: flow cytometry on PANC-1 cells, MFI (FITC-A Median) [continued) C].
Test [5] concerns the target cynomolgus ROR1 on CHO-K1-cynoROR1 cells (cynomolgus monkey). Kind of test: flow cytometry on CHOK1-cynoROR1 cells, MFI (APC-A Median) [middle panel, letter not given].
Test [6] deals with human ROR1 on cells (HEK293T-hROR1, PANC-1, A549) (human) (UniProt Q01973). In words: flow cytometry on PANC-1 cells, MFI (FITC-A Median).
Test [7] has as its target cynomolgus ROR1 on CHO-K1-cynoROR1 cells (cynomolgus monkey). In words: flow cytometry on CHOK1-cynoROR1 cells, MFI (APC-A Median) [top panel].
Test [8] concerns the target human ROR1 on cells (HEK293T-hROR1, PANC-1, A549) (human) (UniProt Q01973). In words: flow cytometry on PANC-1 cells (monovalent VH-Flag-His form).
Test [9] shares this target. In words: flow cytometry on PANC-1 cells, MFI (Median-APC) [middle panel, letter not given].
Test [10] shares this target. Kind of test: flow cytometry on PANC-1 cells, MFI (Median-APC) [top panel].
Test [11] shares this target. Kind of test: flow cytometry on PANC-1 cells, MFI (APC-A Median).
Test [12] shares this target. Kind of test: flow cytometry on PANC-1 cells, MFI (Median-APC) [bottom panel, letter not given].

These are yes or no findings as the source states them, for the method shown. Some results given as binding are weak or reduced against the parent protein; the word gives no strength.

B1: PR303147 (antibody, human IgG1, V domains shown)
VH: EVQLVESGGGLVQPGGSLRLSCAASGFTFSNFWMYWVRQAPGKGLVWVSRINSDGSSTNYADSVKGRFTISRDNAKNTLYLQMNSLRVEDTAVYSCAREGSGWYEDFDYWGQGTLVTVSS
notes: HCAb (heavy chain-only, human IgG1 Fc), no light chain
For the molecule B1, the binding result in [1] and in test [2] was “binds” in each case.

B2: PR005352 (antibody, human IgG1, V domains shown)
VH: EVQLVESGGGLVKPGGSLRLSCAASGFTFSDYYMSWIRQAPGKGLEWISYISSSGGSIYYADSVKGRFTISRDNAKNSLYLQMNRLRAEDTALYYCARTPPSSNNWYEDFDYWGQGALVTVSS
notes: as for B1
As for B2, the binding result in test [3], in test [4] and in test [2] was “binds” in each case.

B3: PR005351 (antibody, human IgG1, V domains shown)
VH: QVQLVESGGGLVKPGGSLRLSCAASGFKLSDFQMSWIRQAPGKGLEWVAYIDTNGSTRYYAESVKGRFTLSRDNVKNSLNLQMNGLRAEDTALYYCARIPSYTSSWYEDFDHWGQGTLVTVSS
notes: as for B1
Regarding B3, the binding entry in test [3], in test [5], in test [6] and in test [2] was “binds” throughout.

B4: PR005346 (antibody, human IgG1, V domains shown)
VH: EVQLVESGGGLVKPGGSLRLSCAASGFTLSDYYMSWIRQAPGKGLEWVSNISKNGFTIYYAESVKGRFTVSRDNAKNSLYLQMNSLRAEDTAIYYCARDSSGWYSEFDYWGQGTLVTVSS
notes: as for B1
For B4, the binding entry in [3], in [5], in [6] and in test [2] was “binds” each time.

B5: PR005350 (antibody, human IgG1, V domains shown)
VH: EVQLVESGGGLVKPGGSLRLSCAASGFTLSDSQMSWIRQAPGKGVEWVSYISSSGNTIYYGDSVKGRFTISRDNAKNSLFLQMNSLRAEDTAVYYCARVPPSSSNWYEDFDIWGQGTLVTVSS
notes: as for B1
Take B5: the binding entry in [3], in [5], in test [6] and in [2] was “binds” throughout.

B6: PR000374 (antibody, human IgG1, kappa, V domains shown)
VH: EVQLVESGGGLVQPGRSLRLSCTASGSDINDYPITWVRQAPGQGLEWIGFINSGGSTWYASWVKGRFTISRDDSKSIAYLQMNSLKTEDTAVYYCARGYSTYYRDFNIWGQGTLVTVSS
VL: DIQMTQSPSSLSASVGDRVTINCQASQSIDSNLAWFQQKPGQPPKLLIYRASNLASGVPDRFSGSGSGTDFTLTISSLEAEDVATYYCLGGVGAVSYRTSFGGGTKVEIKR
notes: positive control; also called Bench marker 1
Take B6: the binding entry in test [7], in [5] and in [1] was “binds” throughout.

B7: PR303201 (antibody, human IgG1, V domains shown)
VH: EVQLLESGGGLVQPGGSLRLSCAASGFTFSGNAMSWVRQAPGKGLEWVSAISGSGDKTYYAASVKGRFTISRDNSNNTVYLQMNSLRAEDTAVYYCEKGAFRTTMDYWGQGTLVTVSS
notes: as for B1
In the case of B7, the binding result in test [1] and in test [2] was “binds” each time.

B8: PR009823 (VHH)
VHH: EVQLVESGGGLVKPGGSLRLSCAASGFTFSDFYMSWIRQAPGKGLEWISYISSSGSWIHYASSVKGRFTISRDNAKNSLYLQMNSLRAEDTAIYYCARDMPSSSSDWVDLQFDYWGQGTLVTVSS
For B8, the binding entry in test [8] is “binds”.

B9: PR005340 (antibody, human IgG1, V domains shown)
VH: EVQLVESGGGLVKPGGSLRLSCAASGFTFSDYYMSWIRQAPGKGLEWISYISSSGSTIHYADSVKGRFTISRDNAKNSLYLQMNSLRAEDTAIYYCARDIPSSSSDWVSLQFDYWGQGTLVTVSS
notes: as for B1
Consider B9, for which the binding entry in test [7], in [3], in test [9], in test [10], in [11] and in test [12] was “binds” throughout. Further, the binding result in [2] is reported as “binds”.

B10: PR007411 (antibody, V domains shown)
VH: EVQLVESGGGLVKPGGSLRLSCAASGFTFSDFYMSWIRQAPGKGLEWISYISSSGSTIHYADSVKGRFTISRDNAKNSLYLQMNSLRAEDTAIYYCARDMPSSSSDWVDLQFDYWGQGTLVTVSS
notes: bivalent form (HCAb) variant of PR005340, no light chain
With B10, in [10], the binding result is reported as “binds”.

B11: PR007408 (antibody, V domains shown)
VH: EVQLVESGGGLVKPGGSLRLSCAASGFTFSDFYMSWIRQAPGKGLEWISYISSSGSYIHYADSVKGRFTISRDNAKNSLYLQMNSLRAEDTAIYYCARDMPSSSSDWVDLQFDYWGQGTLVTVSS
notes: as for B10
Regarding B11, the binding result in [10] is reported as “binds”.

B12: PR007409 (antibody, V domains shown)
VH: EVQLVESGGGLVKPGGSLRLSCAASGFTFSDFYMSWIRQAPGKGLEWISYISSSGSWIHYADSVKGRFTISRDNAKNSLYLQMNSLRAEDTAIYYCARDIPSSSSDWVDLQFDYWGQGTLVTVSS
notes: as for B10
Consider B12, for which the binding entry in [10] is given as “binds”.

B13: PR007412 (antibody, V domains shown)
VH: EVQLVESGGGLVKPGGSLRLSCAASGFTFSDFYMSWIRQAPGKGLEWISYISSSGSWIHYADSVKGRFTISRDNAKNSLYLQMNSLRAEDTAIYYCARDMPSSSSDWVSLQFDYWGQGTLVTVSS
notes: as for B10
Take B13: the binding result in test [10] is reported as “binds”.

B14: PR007410 (antibody, V domains shown)
VH: EVQLVESGGGLVKPGGSLRLSCAASGFTFSDFYMSWIRQAPGKGLEWISYISSSGSYIHYADSVKGRFTISRDNAKNSLYLQMNSLRAEDTAIYYCARDIPSSSSDWVDLQFDYWGQGTLVTVSS
notes: as for B10
Take B14: the binding result in test [10] was “binds”.

B15: PR005344 (antibody, human IgG1, V domains shown)
VH: EVQLVESGGGLVKPGGSLRLSCAASGFTFSDYYMSWIRQAPGKGLEWISYISNSSSSISYANSVKGRFTVSRDNAKNSLYLQMNSLRAEDTALYYCARSPRGAFYEDFDYWGQGTLVTVSS
notes: as for B1
On to B15, for which the binding entry in test [3], in [5], in test [6] and in [2] was “binds” throughout.

B16: PR005349 (antibody, human IgG1, V domains shown)
VH: EVQLVESGGGLVKPGGSLRLSCAASGFTFSDYYMSWIRQAPGKGLEWISYISNSSSSISYANSVKGRFTVSRDNAKNSLYLQMNSLRAEDTALYYCARSPRSAFYEDFDYWGQGTLVTVSS
notes: as for B1
Regarding B16, the binding entry in [3], in test [4] and in test [2] was “binds” in each case.

B17: PR303125 (antibody, human IgG1, V domains shown)
VH: EVQLLESGGGLVQPGGSLRLSCAASGFTFSSHAMSWVRQAPGKGLEWVSAISGSGDSTHYAASVKGRFTISRDNSKNTLYLQMNSLRAEDTAVYYCETLLRFLESLGNDGFKIWGQGTMVTVSS
notes: as for B1
B17: the binding result in [1] and in test [2] was “binds” in each case.

B18: PR303191 (antibody, human IgG1, V domains shown)
VH: EVQLLESGGGLVQPGGSLRLSCAASGFIFGSYAMSWVRQAPGKGLEWVSGISGTGGNTYYADSVKGRFTISRDNSKNTLYLQMNSLRAEDTAVYFCERGITIHGVVIIPPDYRGQGTLVTVSS
notes: as for B1
For the molecule B18, the binding result in [1] and in [2] was “binds” each time.
